Experimental data as given in the supplement of paper PMC7238544.
Counter-ions that a name gives are not always drawn. ± gives the standard deviation of the averaged measurements. The list shows a part of the results. The data scatter; read single values as rough.

How the values were obtained:
hAMSC donor 1 [1] = test: Hoechst total cell count ratio vs vehicle control; higher = more cells (less toxicity)
hAMSC donor 2 [2] = test: as above
hAMSC donor 1 [3] = test: transgenic luciferase activity (RLU/mg protein) fold change vs vehicle control (ratio); higher = more transgene expression
hAMSC donor 2 [4] = test: as above
hAMSC donor 1 [5] = test: transfection efficiency (EGFP+ cells / Hoechst count) fold change vs vehicle control (ratio); hAMSC are human adipose-derived mesenchymal stem cells given an EGFP-luciferase plasmid by lipofection; higher = enhanced transfection
hAMSC donor 2 [6] = test: as above
[7] = priming compound concentration 0.2 µM
[8] = priming compound concentration 1.7 µM
[9] = priming compound concentration 13 µM

SMILES	Hoechst total cell count ratio (hAMSC donor 1 [1]; [7])	Hoechst total cell count ratio (hAMSC donor 1 [1]; [8])	Hoechst total cell count ratio (hAMSC donor 1 [1]; [9])	Hoechst total cell count ratio (hAMSC donor 2 [2]; [7])	Hoechst total cell count ratio (hAMSC donor 2 [2]; [8])	Hoechst total cell count ratio (hAMSC donor 2 [2]; [9])	transgenic luciferase activity (hAMSC donor 1 [3]; [7])	transgenic luciferase activity (hAMSC donor 1 [3]; [8])	transgenic luciferase activity (hAMSC donor 2 [4]; [7])	transgenic luciferase activity (hAMSC donor 2 [4]; [8])	transgenic luciferase activity (hAMSC donor 2 [4]; [9])	transfection efficiency (hAMSC donor 1 [5]; [7])	transfection efficiency (hAMSC donor 1 [5]; [8])	transfection efficiency (hAMSC donor 1 [5]; [9])	transfection efficiency (hAMSC donor 2 [6]; [7])	transfection efficiency (hAMSC donor 2 [6]; [8])	transfection efficiency (hAMSC donor 2 [6]; [9])	transgenic luciferase activity (hAMSC donor 1 [3]; [9])
O=C(O[C@@H]1C[C@@H]2C[C@H]3C[C@H](C1)N2CC3=O)c1c[nH]c2ccccc12 [Dolasetron mesylate]	1.11 ± 0.057	1.11 ± 0.14	1.29 ± 0.026	1.02 ± 0.087	1.11 ± 0.11	1.25 ± 0.13	0.664 ± 0.053	1.32 ± 0.29	0.535 ± 0.35	0.894 ± 0.13	0.69 ± 0.1	1.4 ± 0.067	1.24 ± 0.29	1.02 ± 0.59	1 ± 0.27	1.22 ± 0.32	1.05 ± 0.19	
CC1Cc2ccccc2N1NC(=O)c1ccc(Cl)c(S(N)(=O)=O)c1 (configuration not stated) [Indapamide]	1.15 ± 0.14	1 ± 0.043	1.02 ± 0.059	1.3 ± 0.11	1.17 ± 0.027	1.27 ± 0.14		0.291 ± 0.057	1.1 ± 0.42	0.663 ± 0.35	0.485 ± 0.17	0.724 ± 0.12	2.61 ± 1.7	0.81 ± 0.15	0.871 ± 0.039	0.945 ± 0.16	0.821 ± 0.062	1.1 ± 0.72
CN(C)CCCN1c2ccccc2Sc2ccc(Cl)cc21 [Chlorpromazine hydrochloride]	1.09 ± 0.04	1.32 ± 0.17	0.967 ± 0.17	1.02 ± 0.3	1.17 ± 0.13	1.36 ± 0.1	0.52 ± 0.12	0.913 ± 0.25	0.69 ± 0.025	0.905 ± 0.11	0.392 ± 0.079	1.2 ± 0.37	1.37 ± 0.4	0.743 ± 0.21	1.22 ± 0.31	1.26 ± 0.21	0.833 ± 0.15	
Cc1ccc(S(=O)(=O)NC(=O)NN2CCCCCC2)cc1 [Tolazamide]	1.41 ± 0.14	1.49 ± 0.046	1.32 ± 0.058	1.17 ± 0.086	1.03 ± 0.044	1.09 ± 0.24		0.955 ± 0.34	0.391 ± 0.45	1.02 ± 0.099	0.948 ± 0.1	1.18 ± 0.14	0.852 ± 0.27	1.22 ± 0.26	0.758 ± 0.071	1.17 ± 0.27	1.14 ± 0.26	0.479 ± 0.19
CCC1(c2ccccc2)C(=O)NCNC1=O [Primidone]	1.16 ± 0.069	1.25 ± 0.02	1.36 ± 0.065	1.1 ± 0.24	1.16 ± 0.077	1.24 ± 0.21		0.33 ± 0.14	0.935 ± 0.26	0.761 ± 0.071	0.616 ± 0.2	0.975 ± 0.17	1.15 ± 0.53	0.834 ± 0.12	1.09 ± 0.071	1.12 ± 0.11	1.04 ± 0.27	0.817 ± 0.3
CC[C@]1(O)C[C@@H]2CN(CCc3c([nH]c4ccccc34)[C@@](C(=O)OC)(c3cc4c(cc3OC)N(C)[C@H]3[C@@](O)(C(N)=O)[C@H](O)[C@]5(CC)C=CCN6CC[C@]43[C@@H]65)C2)C1 [Vindesine sulfate]	0.484 ± 0.049	0.632 ± 0.13	0.583 ± 0.052	0.488 ± 0.083	0.548 ± 0.025	0.469 ± 0.049		0.337 ± 0.24	0.826 ± 0.16	1.44 ± 0.13	0.761 ± 0.15	1.15 ± 0.7	1.23 ± 0.59	1.57 ± 0.84	1.07 ± 0.1	1.18 ± 0.22	1.48 ± 0.46	0.52 ± 0.41
NC(=O)c1cnccn1 [Pyrazinamide]	1.02 ± 0.2	1.04 ± 0.1	0.925 ± 0.073	1.14 ± 0.18	1.09 ± 0.096	1.33 ± 0.072		0.209 ± 0.07	0.734 ± 0.089	0.739 ± 0.16	0.552 ± 0.11	1.42 ± 0.26	1.39 ± 0.49	1.2 ± 0.41	0.795 ± 0.18	1.22 ± 0.049	0.905 ± 0.19	1.63 ± 0.34
COc1ccc(Cl)cc1C(=O)NCCc1ccc(S(=O)(=O)NC(=O)NC2CCCCC2)cc1 [Glyburide]	1.13 ± 0.2	1.15 ± 0.08	1.38 ± 0.14	1.1 ± 0.057	1.42 ± 0.053	1.12 ± 0.28	0.452 ± 0.13	1.83 ± 0.73	0.871 ± 0.51	0.718 ± 0.087	0.861 ± 0.032	1.08 ± 0.18	1.17 ± 0.19	1.12 ± 0.14	1.1 ± 0.2	0.901 ± 0.035	1.12 ± 0.4	
CC(CCc1ccccc1)NCC(O)c1ccc(O)c(C(N)=O)c1 (configuration not stated) [Labetalol hydrochloride]	1.26 ± 0.082	1.21 ± 0.095	1.38 ± 0.19	1.12 ± 0.074	1.21 ± 0.046	1.44 ± 0.069		0.776 ± 0.059	0.745 ± 0.096	0.441 ± 0.056	0.385 ± 0.058	1.04 ± 0.42	1.08 ± 0.2	1.1 ± 0.27	0.875 ± 0.072	1.13 ± 0.024	0.804 ± 0.092	0.366 ± 0.066
CC(=O)NS(=O)(=O)c1ccc(N)cc1 [Sulfacetamide]	1.01 ± 0.09	1.23 ± 0.016	1.12 ± 0.14	0.991 ± 0.29	1.29 ± 0.069	0.968 ± 0.22	0.957 ± 0.47	1.1 ± 0.19	0.928 ± 0.28	0.975 ± 0.34	0.996 ± 0.39	2.09 ± 0.76	1.23 ± 0.11	1.03 ± 0.27	1.12 ± 0.17	1.13 ± 0.1	1.71 ± 0.51	
CCCc1c(OCCCCc2nnn[nH]2)ccc(C(C)=O)c1O	1.29 ± 0.075	1.16 ± 0.25	1.57 ± 0.27	1.2 ± 0.076	0.813 ± 0.13	1.17 ± 0.098	0.802 ± 0.29		0.772 ± 0.15	0.716 ± 0.21		1.49 ± 0.57	1.1 ± 0.34	1.05 ± 0.2	1.02 ± 0.18	1.3 ± 0.053	1.12 ± 0.14	1.66 ± 1.3
O=c1[nH]c(=O)n([C@H]2C[C@H](O)[C@@H](CO)O2)cc1F [Floxuridine]	1.14 ± 0.11	1.27 ± 0.013	1.341 ± 0.0091	1.35 ± 0.083	1.14 ± 0.029	1.4 ± 0.22		0.252 ± 0.029	0.938 ± 0.47	0.74 ± 0.28	0.551 ± 0.17	0.951 ± 0.2	1.04 ± 0.17	0.9 ± 0.21	0.964 ± 0.042	1.14 ± 0.1	0.808 ± 0.11	0.791 ± 0.18
COC(=O)C1=C(C)NC(C)=C(C(=O)OC(C)C)C1c1cccc2nonc12 (configuration not stated) [Isradipine]	1.22 ± 0.23	1.13 ± 0.27	1.38 ± 0.11	0.874 ± 0.2	0.971 ± 0.046	0.968 ± 0.013		0.592 ± 0.47	0.509 ± 0.068	1.06 ± 0.11	0.923 ± 0.79	1.18 ± 0.26	1.67 ± 0.54	1.16 ± 0.23	1.17 ± 0.42	1.54 ± 0.11	1.28 ± 0.2	0.318 ± 0.15
O=c1[nH]c(=O)n(C2CCCO2)cc1F (configuration not stated) [Tegafur]	1.44 ± 0.2	1.187 ± 0.0065	1.04 ± 0.17	1.27 ± 0.072	1.423 ± 0.0054	1.1 ± 0.14		0.624 ± 0.25	0.437 ± 0.19	0.728 ± 0.04	0.724 ± 0.27	0.929 ± 0.23	0.939 ± 0.26	1.11 ± 0.065	0.895 ± 0.12	0.936 ± 0.036	1.23 ± 0.1	0.541 ± 0.23

Part of the list above in order of length of the SMILES, ascending:
SMILES	Hoechst total cell count ratio (hAMSC donor 1 [1]; [7])	Hoechst total cell count ratio (hAMSC donor 1 [1]; [8])	Hoechst total cell count ratio (hAMSC donor 1 [1]; [9])	Hoechst total cell count ratio (hAMSC donor 2 [2]; [7])	Hoechst total cell count ratio (hAMSC donor 2 [2]; [8])	Hoechst total cell count ratio (hAMSC donor 2 [2]; [9])	transgenic luciferase activity (hAMSC donor 1 [3]; [7])	transgenic luciferase activity (hAMSC donor 1 [3]; [8])	transgenic luciferase activity (hAMSC donor 2 [4]; [7])	transgenic luciferase activity (hAMSC donor 2 [4]; [8])	transgenic luciferase activity (hAMSC donor 2 [4]; [9])	transfection efficiency (hAMSC donor 1 [5]; [7])	transfection efficiency (hAMSC donor 1 [5]; [8])	transfection efficiency (hAMSC donor 1 [5]; [9])	transfection efficiency (hAMSC donor 2 [6]; [7])	transfection efficiency (hAMSC donor 2 [6]; [8])	transfection efficiency (hAMSC donor 2 [6]; [9])	transgenic luciferase activity (hAMSC donor 1 [3]; [9])
NC(=O)c1cnccn1 [Pyrazinamide]	1.02 ± 0.2	1.04 ± 0.1	0.925 ± 0.073	1.14 ± 0.18	1.09 ± 0.096	1.33 ± 0.072		0.209 ± 0.07	0.734 ± 0.089	0.739 ± 0.16	0.552 ± 0.11	1.42 ± 0.26	1.39 ± 0.49	1.2 ± 0.41	0.795 ± 0.18	1.22 ± 0.049	0.905 ± 0.19	1.63 ± 0.34
CCC1(c2ccccc2)C(=O)NCNC1=O [Primidone]	1.16 ± 0.069	1.25 ± 0.02	1.36 ± 0.065	1.1 ± 0.24	1.16 ± 0.077	1.24 ± 0.21		0.33 ± 0.14	0.935 ± 0.26	0.761 ± 0.071	0.616 ± 0.2	0.975 ± 0.17	1.15 ± 0.53	0.834 ± 0.12	1.09 ± 0.071	1.12 ± 0.11	1.04 ± 0.27	0.817 ± 0.3
CCCc1c(OCCCCc2nnn[nH]2)ccc(C(C)=O)c1O	1.29 ± 0.075	1.16 ± 0.25	1.57 ± 0.27	1.2 ± 0.076	0.813 ± 0.13	1.17 ± 0.098	0.802 ± 0.29		0.772 ± 0.15	0.716 ± 0.21		1.49 ± 0.57	1.1 ± 0.34	1.05 ± 0.2	1.02 ± 0.18	1.3 ± 0.053	1.12 ± 0.14	1.66 ± 1.3
